According to PubChem BioAssay AID493014 (National Center for Advancing Translational Sciences (NCATS), 2011):
The other results are listed elsewhere or left out. Further columns of the screen follow, without active or inactive calls. The list favours compounds with an active or inconclusive main result. The note in brackets gives the kind of curve behind each potency; many fits are weak.

Experiment: qHTS Assay to Find Inhibitors of Chronic Active B-Cell Receptor Signaling
Conditions: ABC-DLBCL IkBa-CBG/CBR reporter, luminescence ratio (green luciferase fused to IkBa over red control in TMD8 lymphoma cells), 4 h
Summary of the method: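 Concentration-response series (up to 46 uM) were applied to TMD8 dual-reporter cells for 4 h at 37C with doxycycline. Green/red ratio, after filter-overlap correction, defined %Activity; red signal alone was normalised to basal cells and zero luminescence.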

[1] = measured here: CBR red luminescence, cell number
[2] = measured here: IkBa-CBG green luminescence

Structure (SMILES)	AC50 [1]	AC50 [2]
CSc1nc2ccc(NC(=O)c3c(F)cccc3F)cc2s1	15.8 µM [falling, single point]	–
CCNC(=O)NC(=O)CSc1ccc(S(=O)(=O)N2CCCCC2)cn1	29.1 µM [rising, partial curve, poor fit]	–
FC(F)(F)c1nnc2c(Sc3ccccc3)nc3ccccc3n12	9.2 µM [falling, partial curve]	–
COc1ccccc1/C=C1\SC(=S)N(CCC(=O)NC2=NCCS2)C1=O	1.84 µM [falling, full curve]	23.1 µM [rising, partial curve, poor fit]
Cc1ccc(NC(=O)c2cc(S(=O)(=O)N3CCOCC3)cn2C)cc1Cl	14.1 µM [falling, single point]	–
CN(c1cccc(NC(=O)c2ccc(Cl)c(S(=O)(=O)Nc3ccccc3)c2)c1)S(C)(=O)=O	14.6 µM [falling, partial curve, poor fit]	–
Cc1cc(C)c2[nH]c(O)c(N=Nc3ccc(C(=O)O)cc3)c2c1	0.447 µM [falling, full curve]	–
Cc1cc2nc(SCCOC(=O)Nc3cccc(Cl)c3)nc(C)c2cc1C	2.59 µM [rising, partial curve, poor fit]	–
O=C1C(Cl)=C(N2CCCCCC2)C(=O)N1c1ccccc1	11.2 µM [falling, partial curve]	–
COc1ccccc1/C=N/NC(=O)c1ccc2c(c1)OCO2	7.08 µM [falling, partial curve]	–
CC(Sc1ncnc2ccccc12)C(=O)Nc1ccc2c(c1)OCO2 (centres undefined)	3.16 µM [falling, full curve]	–
CCN(CC)CCCn1c2c(c(SCC(=O)Nc3nccs3)nc1=O)CCC2	9.2 µM [falling, partial curve]	–
CC(C)c1nc(SCC(=O)N2CCCC2)c2ccccc2n1	12.6 µM [falling, single point]	–
CN(Cc1ccccc1)C(=O)c1ccc(NC(=O)Cc2cccc(NC(=O)C3CCN(C(=O)C4CC4)CC3)c2)cc1	1.3 µM [falling, full curve, poor fit]	–
COc1ccc(/C=N/NC(=O)c2cc(-c3ccccc3)nc3ccccc23)cc1O	35.5 µM [falling, single point]	–
Nc1cccc(-c2nc3ccc(N)cc3s2)c1	10 µM [falling, partial curve]	–
Cc1ccc(-n2c(-c3ccccc3)c[n+]3c2CCc2ccccc2-3)c(C)c1	28.2 µM [falling, single point]	–
CC(=O)Nc1nc2cc([N+](=O)[O-])ccc2s1	7.31 µM [falling, single point]	–
Cc1cc2c(c(=O)o1)C1O[C@](CCCCN3C(=O)c4ccccc4C3=O)(Cc3cc(C#N)ccc31)O2	–	5.62 µM [rising, partial curve, poor fit]
O=C1[C@@H]2[C@H](C(=O)N1n1cnnc1)[C@H]1C=C[C@@H]2C1	11.2 µM [rising, partial curve, poor fit]	–
CCCCOc1cccc(C2(C(=O)O)CCCC2)c1	29.1 µM [falling, single point]	–

Structure (SMILES)	AC50 [1]	AC50 [2]
COC(=O)c1ccc(Oc2ccc(S(=O)(=O)N3CCCCC3)cc2N)cc1	17.8 µM [falling, single point]	–
COc1ccc(S(=O)(=O)NCc2ccc(C(=O)N(C)Cc3ccco3)cc2)cc1	20.6 µM [rising, partial curve, poor fit]	–
N#C/C(=C\c1ccc(-c2ccc(C(=O)O)cc2)o1)c1nc2ccccc2[nH]1	0.316 µM [falling, full curve, poor fit]	–
O=C(Nc1nc2ccccc2s1)C1CCN(S(=O)(=O)c2cc([N+](=O)[O-])ccc2Cl)CC1	11.2 µM [falling, partial curve, poor fit]	–
Cc1cc(O)c(C(=O)Nc2cccc(Cl)c2)c(=O)n1C	5.62 µM [rising, full curve, poor fit]	–
COC(=O)[C@@H](Cc1ccccc1)NC(=O)NCCc1ccccc1	12.6 µM [rising, single point]	–
O=[N+]([O-])c1ccc(O)c(/C=N/Nc2ccccc2[N+](=O)[O-])c1	2.51 µM [rising, partial curve, poor fit]	–
CC(C)CCNC(=O)C(=O)NC1CCCC1	18.4 µM [falling, partial curve, poor fit]	–
O=C(O)CNC(=O)c1ccccc1NC(=O)c1ccco1	29.1 µM [falling, single point]	–
COc1ccccc1-n1ccnc(SCC(=O)NCCc2ccccc2)c1=O	8.2 µM [falling, partial curve]	–
O=c1c2cc(NC(=S)N3CCC(N4CCCCC4)CC3)ccc2nc2n1CCCCC2	14.1 µM [falling, partial curve, poor fit]	–
Cc1cc(NC(=O)CN2C(=O)C3CC=CCC3C2=O)no1 (centres undefined)	11.6 µM [falling, partial curve, poor fit]	–
Cc1cc(C)n(-c2nc(SCC(=O)Nc3nccs3)c3c4c(sc3n2)COC(C)(C)C4)n1	4.47 µM [rising, single point]	–
COc1ccc(-c2nnn(CC(=O)N(CC3CCCO3)C(C(=O)NC(C)(C)C)c3ccco3)n2)cc1OC (centres undefined)	35.5 µM [rising, single point]	–
CCOC(=O)c1n[nH]n(-c2cc(Cl)cc(Cl)c2)c1=O	11.2 µM [falling, partial curve, poor fit]	–
Cc1cc(C)c2nc(C(F)(F)F)nc(NCCCN3CCOCC3)c2c1	2.06 µM [rising, partial curve, poor fit]	10.3 µM [falling, partial curve]
COc1ccc(/C=C/C(=O)c2ccc(O)cc2)cc1CN1CCOCC1	29.1 µM [falling, single point]	–
O=C(COC(=O)/C=C/c1ccc(Cl)c(Cl)c1)NC1CCS(=O)(=O)C1 (centres undefined)	29.1 µM [falling, single point]	–
Cc1ccccc1NC(=O)Nc1cccs1	16.4 µM [falling, single point]	–
NC(=O)COC(=O)CCCc1nc2ccccc2s1	7.31 µM [rising, partial curve, poor fit]	–
CC[C@]12c3[nH]c4cc(-c5ccco5)ccc4c3CCN1C(=O)[C@@H](CC(=O)NCC13CC4CC(CC(C4)C1)C3)C[C@@H]2C(=O)N1CCN(C(=O)c2ccco2)CC1	–	29.1 µM [falling, single point]

Structure (SMILES)	AC50 [1]	AC50 [2]
Cc1cc(N)n2nc(-c3ccc(C(C)(C)C)cc3)cc2n1	14.6 µM [rising, partial curve]	–
CCc1ccc(C2=NN(CCC(=O)NC3CC3)C(=O)CC2)cc1	32.6 µM [rising, partial curve, poor fit]	–
CN(Cc1ccccc1)/C(=N/O)c1cccc(Cl)c1	15.8 µM [rising, single point]	–
C=CCC[C@H](Cc1ccc(F)cc1)C(=O)OC[C@@H](Cc1c[nH]c2ccccc12)NC(=O)[C@H](CC=C)CC(=O)N[C@H](CO)Cc1ccccc1	29.1 µM [falling, single point]	–
CCCOc1ccc(NC(=O)CC2C(=O)N(Cc3ccccc3)C(=S)N2Cc2cccs2)cc1 (centres undefined)	2.31 µM [falling, partial curve, poor fit]	23.1 µM [rising, partial curve, poor fit]
COCCn1c(SCC(=O)NCc2ccco2)nnc1C(C)C	0.731 µM [rising, full curve, poor fit]	–
CC(=O)c1sc(NC(=O)COc2ccc(Cl)cc2Cl)nc1C	20 µM [falling, single point]	–
COc1ccccc1OCC(=O)Nn1c(=S)[nH]c2ncccc2c1=O	0.92 µM [falling, partial curve, poor fit]	–
COc1ccc(/C=C(/NC(=O)c2ccccc2)C(=O)N2CCC(C)CC2)cc1	35.5 µM [rising, single point]	–
O=C(NC12CC3CC(CC(C3)C1)C2)c1ccc(-c2ccc(Cl)cc2)o1	9.2 µM [rising, partial curve, poor fit]	–
N#CCC(=O)Nc1ccc(C(=O)OCC(=O)N2CCN(C(=O)c3ccco3)CC2)cc1	7.31 µM [falling, single point]	–
O=C(CN1C(=O)c2ccccc2S1(=O)=O)NC1CCCCCC1	3.66 µM [rising, partial curve, poor fit]	–
O=C(O)c1ccc2nc(-c3ccco3)c(-c3ccco3)nc2c1	15.8 µM [falling, single point]	–
O=C(C1Cc2ccccc2CN1S(=O)(=O)c1cccs1)N1CCCCCC1 (centres undefined)	11.6 µM [falling, partial curve]	–
COc1ccccc1CNS(=O)(=O)c1cccc(S(=O)(=O)N2CCOCC2)c1	29.1 µM [falling, single point]	–
CN(C)/C=N/c1nc(-c2ccc3ccccc3c2)cs1	35.5 µM [falling, single point]	–
CC(CCc1ccc(O)cc1)NC1C2CC3CC(C2)CC1C3 (centres undefined)	2.59 µM [rising, partial curve, poor fit]	–
C=CCOc1ccccc1CNCCc1ccc(S(N)(=O)=O)cc1	5.01 µM [falling, full curve, poor fit]	–
COC(=O)c1sc(NC(=O)/C=C/c2ccc(C)o2)nc1C	1.64 µM [falling, partial curve]	–

Pulled by compound from above (five):
Structure (SMILES)	AC50 [1]	AC50 [2]
Cc1cc(C)c2nc(C(F)(F)F)nc(NCCCN3CCOCC3)c2c1	2.06 µM [rising, partial curve, poor fit]	10.3 µM [falling, partial curve]
O=C(Nc1nc2ccccc2s1)C1CCN(S(=O)(=O)c2cc([N+](=O)[O-])ccc2Cl)CC1	11.2 µM [falling, partial curve, poor fit]	–
CC(CCc1ccc(O)cc1)NC1C2CC3CC(C2)CC1C3 (centres undefined)	2.59 µM [rising, partial curve, poor fit]	–
COc1ccccc1/C=C1\SC(=S)N(CCC(=O)NC2=NCCS2)C1=O	1.84 µM [falling, full curve]	23.1 µM [rising, partial curve, poor fit]
COC(=O)c1ccc(Oc2ccc(S(=O)(=O)N3CCCCC3)cc2N)cc1	17.8 µM [falling, single point]	–
